# Assay results from doi:10.1101/2019.12.20.885558.
# Chains of the proteins cited; added tags and fusions are not shown.
# UniProt P55884: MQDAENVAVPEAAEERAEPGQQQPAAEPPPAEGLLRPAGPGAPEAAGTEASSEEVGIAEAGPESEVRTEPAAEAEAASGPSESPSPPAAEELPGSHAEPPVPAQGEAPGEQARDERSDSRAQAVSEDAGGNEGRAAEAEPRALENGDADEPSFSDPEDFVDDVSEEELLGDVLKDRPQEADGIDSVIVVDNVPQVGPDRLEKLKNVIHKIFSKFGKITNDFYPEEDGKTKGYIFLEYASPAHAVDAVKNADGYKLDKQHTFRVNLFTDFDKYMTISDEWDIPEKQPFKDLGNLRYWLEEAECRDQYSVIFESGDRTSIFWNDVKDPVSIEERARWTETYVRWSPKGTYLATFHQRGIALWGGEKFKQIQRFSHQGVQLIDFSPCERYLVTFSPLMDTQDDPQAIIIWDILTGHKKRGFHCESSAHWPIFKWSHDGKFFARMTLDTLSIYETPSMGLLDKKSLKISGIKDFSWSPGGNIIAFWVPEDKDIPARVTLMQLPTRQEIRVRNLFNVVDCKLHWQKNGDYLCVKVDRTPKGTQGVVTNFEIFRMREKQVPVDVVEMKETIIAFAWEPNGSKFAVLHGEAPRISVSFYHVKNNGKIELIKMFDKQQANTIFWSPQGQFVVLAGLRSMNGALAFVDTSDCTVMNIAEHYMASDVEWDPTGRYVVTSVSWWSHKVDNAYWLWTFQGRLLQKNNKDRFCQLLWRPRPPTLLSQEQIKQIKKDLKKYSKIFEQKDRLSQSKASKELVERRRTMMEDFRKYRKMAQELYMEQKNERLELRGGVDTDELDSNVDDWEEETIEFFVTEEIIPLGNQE
# UniProt O15371: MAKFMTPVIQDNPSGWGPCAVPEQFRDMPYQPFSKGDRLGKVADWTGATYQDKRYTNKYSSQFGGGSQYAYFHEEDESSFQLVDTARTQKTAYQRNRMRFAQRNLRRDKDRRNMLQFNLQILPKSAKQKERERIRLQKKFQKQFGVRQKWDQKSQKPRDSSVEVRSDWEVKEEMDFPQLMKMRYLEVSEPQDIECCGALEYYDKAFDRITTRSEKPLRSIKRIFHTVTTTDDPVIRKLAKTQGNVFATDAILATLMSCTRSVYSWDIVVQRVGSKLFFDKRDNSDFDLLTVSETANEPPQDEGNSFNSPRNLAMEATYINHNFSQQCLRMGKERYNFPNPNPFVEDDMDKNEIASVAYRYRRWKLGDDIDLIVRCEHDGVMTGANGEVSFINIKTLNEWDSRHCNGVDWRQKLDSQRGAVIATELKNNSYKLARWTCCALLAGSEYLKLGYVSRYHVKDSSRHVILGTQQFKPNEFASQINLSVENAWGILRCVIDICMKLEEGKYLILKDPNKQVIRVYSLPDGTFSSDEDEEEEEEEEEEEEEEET
# UniProt O00303: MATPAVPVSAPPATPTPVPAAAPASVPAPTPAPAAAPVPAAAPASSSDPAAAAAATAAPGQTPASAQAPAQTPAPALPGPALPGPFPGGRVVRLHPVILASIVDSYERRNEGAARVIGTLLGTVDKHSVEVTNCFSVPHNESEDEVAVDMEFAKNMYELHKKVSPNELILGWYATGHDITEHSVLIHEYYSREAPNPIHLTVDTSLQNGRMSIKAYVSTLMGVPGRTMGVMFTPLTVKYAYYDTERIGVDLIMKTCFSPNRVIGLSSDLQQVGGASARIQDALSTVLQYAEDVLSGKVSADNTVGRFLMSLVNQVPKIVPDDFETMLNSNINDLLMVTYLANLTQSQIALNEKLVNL
# Results are given in words; binding and its absence hold for the method and conditions named. In cells and extracts the contact can be indirect. Here binding means that the protein was enriched with, or labelled near, the bait; the list need not be complete.
# Biological target: eukaryotic initiation factor 3 subunit EIF3B (human (endogenous in Jurkat)) (UniProt P55884)
# Experiment: affinity purification with mass spectrometry
row,binding,Substance
1,binds,eukaryotic initiation factor 3 subunit EIF3D (from UniProt O15371 1-548)
2,binds,eukaryotic initiation factor 3 subunit EIF3F (from UniProt O00303 1-357)
